Literature values in paper PMC5840332, “Disease-associated missense mutations in GluN2B subunit alter NMDA receptor ligand binding and ion channel properties” (Nature Communications, 2018).

Tested on: NMDAR channel
Design: method as in earlier work
Settings: ref 28 Blanpied et al., cited from earlier work

## CC12CC3CC(C)(C1)CC(N)(C3)C2 [Memantine, memantine]
Primary channel site
  V0 of primary channel site for memantine: 31.5 mV
Second site
  V0 of second site for memantine: 67.2 mV
